In patent US20110044988A1:
No constants are given. Whether binding was seen depends on the method and setting. In cells and extracts the contact can be indirect. Some entries that bind do so weakly or less than the wild type.

Amino acid sequences for entries named in this document (tags omitted).
UniProt P25025: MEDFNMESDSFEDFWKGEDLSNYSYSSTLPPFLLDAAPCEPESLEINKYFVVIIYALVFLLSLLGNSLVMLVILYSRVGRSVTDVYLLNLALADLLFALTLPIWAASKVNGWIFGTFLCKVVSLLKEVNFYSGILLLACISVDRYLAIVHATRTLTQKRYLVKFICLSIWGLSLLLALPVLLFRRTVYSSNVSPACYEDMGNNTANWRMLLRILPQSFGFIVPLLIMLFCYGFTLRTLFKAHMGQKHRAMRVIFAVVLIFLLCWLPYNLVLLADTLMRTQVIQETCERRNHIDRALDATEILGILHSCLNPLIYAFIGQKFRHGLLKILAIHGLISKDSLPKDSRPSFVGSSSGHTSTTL

Target: T1, mouse CD74 (endogenous in L1.2 and RAW264.7 cells) (mouse) (UniProt P04441)
T1 sequence (looked up): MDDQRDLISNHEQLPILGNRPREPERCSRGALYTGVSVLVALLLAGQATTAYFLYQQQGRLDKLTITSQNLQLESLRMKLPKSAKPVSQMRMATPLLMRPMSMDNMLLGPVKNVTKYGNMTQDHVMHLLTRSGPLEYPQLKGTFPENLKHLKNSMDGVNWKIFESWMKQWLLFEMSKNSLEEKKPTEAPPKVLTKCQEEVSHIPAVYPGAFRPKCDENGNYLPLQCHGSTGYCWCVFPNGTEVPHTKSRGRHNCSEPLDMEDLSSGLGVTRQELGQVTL
Test: coimmunoprecipitation with an antibody to CXCR2 from L1.2-CXCR2 cells, immunoblot with an antibody to mouse CD74

With “human CXCR2 (from UniProt P25025 1-360) (receptor)” the binding was “binds”.
